Laboratory results: paper PMC10805470
These are yes or no findings as the source states them, for the method shown. Binding seen in cells or lysates may run through a third protein. Some binding calls cover weakened binding; strength is not graded here.

Sequences of proteins named here, by UniProt entry; tags and fusion partners are left off.
UniProt Q8R4B8: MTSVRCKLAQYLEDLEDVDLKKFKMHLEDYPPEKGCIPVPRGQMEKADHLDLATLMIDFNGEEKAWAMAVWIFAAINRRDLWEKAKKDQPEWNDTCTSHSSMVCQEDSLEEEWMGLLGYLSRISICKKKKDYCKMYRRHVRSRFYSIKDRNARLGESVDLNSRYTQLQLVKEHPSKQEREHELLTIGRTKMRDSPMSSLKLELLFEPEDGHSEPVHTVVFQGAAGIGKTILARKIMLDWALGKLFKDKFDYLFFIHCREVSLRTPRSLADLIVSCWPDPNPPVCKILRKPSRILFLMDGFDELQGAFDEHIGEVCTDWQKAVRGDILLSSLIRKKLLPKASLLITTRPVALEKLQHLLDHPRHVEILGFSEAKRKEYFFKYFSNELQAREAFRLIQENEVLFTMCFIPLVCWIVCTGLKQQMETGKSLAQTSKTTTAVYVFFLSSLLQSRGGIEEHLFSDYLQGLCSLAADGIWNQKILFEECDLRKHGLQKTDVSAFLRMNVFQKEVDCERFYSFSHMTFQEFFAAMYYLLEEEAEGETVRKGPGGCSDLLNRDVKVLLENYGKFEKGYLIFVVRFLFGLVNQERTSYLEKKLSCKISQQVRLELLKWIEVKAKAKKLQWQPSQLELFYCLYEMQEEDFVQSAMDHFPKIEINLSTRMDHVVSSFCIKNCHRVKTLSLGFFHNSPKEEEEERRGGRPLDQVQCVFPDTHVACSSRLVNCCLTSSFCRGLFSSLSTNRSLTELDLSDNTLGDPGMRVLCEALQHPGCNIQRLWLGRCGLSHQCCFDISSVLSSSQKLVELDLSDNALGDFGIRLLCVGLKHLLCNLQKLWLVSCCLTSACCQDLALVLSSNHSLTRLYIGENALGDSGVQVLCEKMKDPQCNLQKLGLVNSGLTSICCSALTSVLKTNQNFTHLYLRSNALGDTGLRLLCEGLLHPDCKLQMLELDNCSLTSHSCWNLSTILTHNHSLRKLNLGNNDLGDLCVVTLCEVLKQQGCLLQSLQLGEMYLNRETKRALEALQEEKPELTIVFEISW
UniProt Q60613: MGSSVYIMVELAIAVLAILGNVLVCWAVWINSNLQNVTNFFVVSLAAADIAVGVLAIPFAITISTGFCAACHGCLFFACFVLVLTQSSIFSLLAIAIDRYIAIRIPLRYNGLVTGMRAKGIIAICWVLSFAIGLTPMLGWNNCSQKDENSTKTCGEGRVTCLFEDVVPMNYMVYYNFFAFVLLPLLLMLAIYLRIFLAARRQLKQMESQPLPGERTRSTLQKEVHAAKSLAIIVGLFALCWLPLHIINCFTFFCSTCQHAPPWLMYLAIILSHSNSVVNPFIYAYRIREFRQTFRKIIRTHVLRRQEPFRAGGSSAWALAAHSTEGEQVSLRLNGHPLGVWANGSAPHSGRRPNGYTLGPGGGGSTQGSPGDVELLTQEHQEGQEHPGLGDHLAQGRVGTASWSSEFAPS

Target: nucleotide-binding oligomerization domain, leucine-rich repeat, and pyrin domain-containing protein 3 (mouse (endogenous in primary microglia)) (UniProt Q8R4B8)
Experiment: co-IP; lysates of primary microglia (IP lysis buffer, protease inhibitors); anti-NLRP3 or anti-A2AR overnight at 4°C, Protein A/G magnetic beads, western blot; normal IgG as control; cells untreated, LPS (1 μg/mL, 3 h) + ATP (1 mM, 20 min), or pretreated with the A2AR agonist CGS21680 (100 nM, 30 min) before LPS + ATP

Question: With “Adenosine 2A receptor (from UniProt Q60613 1-410)” as the substance, how does the binding read?
Answer: Its binding is “binds”.
